Test results published in doi:10.1101/2025.08.28.672006.

Experiments:
[1] = target: T1, phospho-FLAG-RAB3A (residues 18–190, Q81L, pT86) (UniProt P20336); experiment: affinity purification with mass spectrometry; FLAG-RAB3A or phospho-FLAG-RAB3A bound to anti-DYKDDDDK magnetic agarose as bait; whole brain lysate of mice given MLi-2 (30 mg/kg, 2 h) added for 1 h at 4 °C; lysis buffer 50 mM Tris-HCl pH 7.4, 150 mM NaCl, 0.5% NP40, 5 mM MgCl2; washes with lysis buffer plus 500 mM NaCl; DIA MS (Orbitrap Astral), 6 replicates a condition; only the target purified
T1 sequence (chain, phosphothreonine at 86 (pT86)): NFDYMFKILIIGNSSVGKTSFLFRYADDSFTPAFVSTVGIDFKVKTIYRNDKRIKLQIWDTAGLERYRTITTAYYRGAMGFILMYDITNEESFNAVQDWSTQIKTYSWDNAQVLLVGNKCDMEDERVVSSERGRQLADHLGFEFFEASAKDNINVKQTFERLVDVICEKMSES

[2] = target: T2, FLAG-RAB3A (residues 18–190, Q81L) (UniProt P20336); experiment: as above
T2 sequence: T1 sequence (chain, phosphothreonine at 86 (pT86))

binding [1]: binds
B1: RILPL2 (protein, UniProt Q99LE1 1-197)
chain: MEDHPVREEEDGEEDEGALAKSPLQLTTDDVYDISYVVGRELMALGSDPRVTRLQFKIVRVMEMLETLVNEGSLAVEELRMERDNLKQEVEGLRKAGVSGAQVNLGPDKMVVDLTDPNRPRFTLQELREVLQERNKLKSQLLLVQEELQCYRSGLLPPRETPGGRREKDAVVAMGNGEKEERTIMKKLFSFRSGKHT

binding [1]: binds
B2: RILPL1 (protein, UniProt Q9JJC6 1-406)
chain: MEEPLGSPPAALSALEKNVAELTVMDVYDIASLVGHEFERVIDQHGCESIARLMPKVVRVLEILEVLVSRHHVAPELDELRLELDRLRVERMDRIEKERKHQKELELVEDVWRGEAQDLLSQIAQLQEENKQLMTNLNHKDVGFSEEEFQKQEGMSERERQVMKRLKEVVDKQRDELRAKDRELGLKNEDVEALQQQQTRLMKINHDLRHRVTVVEAQGKALIEQKVELEADLQTKEQEMGSLRAELGKLRERLQGEHSQNGEEEEAEIQPQPDGEESISDAEKAALDLKDPNRPRFTLQELRDVLHERNELKSKVFLLQEELAYYKSEEIEEENRIPQPPPITHPRTSPQPESGIKRLFSFFSRDKKRLANTQRPTHIHESFGQWAITQRDDGYTEQGQEALQHL

binding [2]: binds
binding [1]: binds
B3: ERC1 (protein, UniProt Q99MI1 1-1120)
chain: MYGSARSVGKVEPSSQSPGRSPRLPRSPRLGHRRTNSTGGSSGNSVGGGSGKTLSMENIQSLNAAYATSGPMYLSDHENVGAETPKSTMTLGRSGGRLPYGVRMTAMGSSPNIASSGVASDTIAFGEHHLPPVSMASTVPHSLRQARDNTIMDLQTQLKEVLRENDLLRKDVEVKESKLSSSMNSIKTFWSPELKKERALRKDEASKITIWKEQYRVVQEENQHMQMTIQALQDELRIQRDLNQLFQQDSSSRTGEPCVAELTEENFQRLHAEHERQAKELFLLRKTLEEMELRIETQKQTLNARDESIKKLLEMLQSKGLSAKATEEDHERTRRLAEAEMHVHHLESLLEQKEKENNMLREEMHRRFENAPDSAKTKALQTVIEMKDSKISSMERGLRDLEEEIQMLKSNGALSSEEREEEMKQMEVYRSHSKFMKNKVEQLKEELSSKDAQGEELKKRAAGLQSEIGQVKQELSRKDTELLALQTKLETLTNQFSDSKQHIEVLKESLTAKEQRAAILQTEVDALRLRLEEKETMLNKKTKQIQDMAEEKGTQAGEIHDLKDMLDVKERKVNVLQKKIENLQEQLRDKEKQMSSLKERVKSLQADTTNTDTALTTLEEALADKERTIERLKEQRDRDEREKQEEIDTYKKDLKDLREKVSLLQGDLSEKEASLLDIKEHASSLASSGLKKDSRLKTLEIALEQKKEECLKMESQLKKAHEATLEARASPEMSDRIQQLEREISRYKDESSKAQTEVDRLLEILKEVENEKNDKDKKIAELESLTSRQVKDQNKKVANLKHKEQVEKKKSAQMLEEARRREDSLSDSSQQLQDSLRKKDDRIEELEEALRESVQITAEREMVLAQEESARTNAEKQVEELLMAMEKVKQELESMKAKLSSTQQSLAEKETHLTNLRAERRKHLEEVLEMKQEALLAAISEKDANIALLELSSSKKKTQEEVAALKREKDRLVQQLKQQTQNRMKLMADNYEDDHFRSSRSNQTNHKPSPDQIIQPLLELDQNRSKLKLYIGHLTALCHDRDPLILRGLTPPASYNADGEQAAWENELQQMTQEQLQNELEKVEGDNAELQEFANTILQQIADHCPDILEQVVNALEESS

binding [2]: binds
binding [1]: binds
B4: ERC2 (protein, UniProt Q6PH08 1-957)
chain: MYGSARTISNLEGSPSRSPRLPRSPRLGHRRTSSGGGGGTGKTLSMENIQSLNAAYATSGPMYLSDHEGVASTTYPKGTMTLGRATNRAVYGGRVTAMGSSPNIASAGLSHTDVLSYTDQHGGLSGSSHHHHHQVPSMLRQVRDSTMLDLQAQLKELQRENDLLRKELDIKDSKLGSSMNSIKTFWSPELKKERVLRKEEAARMSVLKEQMRVSHEENQHLQLTIQALQDELRTQRDLNHLLQQESGNRGAEHFTIELTEENFRRLQAEHDRQAKELFLLRKTLEEMELRIETQKQTLNARDESIKKLLEMLQSKGLPSKSLEDDNERTRRMAEAESQVSHLEVILDQKEKENIHLREELHRRSQLQPEPAKTKALQTVIEMKDTKIASLERNIRDLEDEVQMLKANGVLNTEDREEEIKQIEVYKSHSKFMKTKIDQLKQELSKKESELLALQTKLETLSNQNSDCKQHIEVLKESLTAKEQRAAILQTEVDALRLRLEEKESFLNKKTKQLQDLTEEKGTLAGEIRDMKDMLEVKERKINVLQKKIENLQEQLRDKDKQLTNLKDRVKSLQTDSSNTDTALATLEEALSEKERIIERLKEQRERDDRERLEEIESFRKENKDLKEKVNALQAELTEKESSLIDLKEHASSLASAGLKRDSKLKSLEIAIEQKKEECNKLEAQLKKAHNIEDDSRMNPEFADRLKQLDKEASYYRDECGKAQAEVDRLLEILKEVENEKNDKDKKIAELESLTLRHMKDQNKKVANLKYNQQLEKKKNAQLLEEVRRREDSMVDNSQHLQIEELMNALEKTRQELDATKARLASTQQSLAEKEAHLANLRIERRKQLEEILEMKQEALLAAISEKDANIALLELSASKKKKTQEEVMALKREKDRLVHQLKQQTQNRMKLMADNYDEDHHHYHHHHHHHHHRSPGRSQHSNHRPSPDQDDEEGIWA

No constants are given. Whether binding was seen depends on the method and setting. Binding seen in cells or lysates may run through a third protein. These calls come from enrichment with a bait or labelling near it, and not all partners need be listed. Where a sequence is shown, tags or fusion partners need not be part of it. Each block holds one binder with its values, some of them ahead of it.
